Results: publication PMC3639902
These are yes or no findings as the source states them, for the method shown. Some entries that bind do so weakly or less than the wild type.

Chains of the proteins cited; added tags and fusions are not shown. Residues count along the entry.
UniProt P56199, residues 1135-1179: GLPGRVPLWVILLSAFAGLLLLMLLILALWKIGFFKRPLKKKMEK
UniProt P05556, residues 717-798: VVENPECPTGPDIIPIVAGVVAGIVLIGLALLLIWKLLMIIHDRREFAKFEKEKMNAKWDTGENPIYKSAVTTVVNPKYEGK

Target: integrin α1 transmembrane and cytoplasmic (TMC) domains, α1-TMC (G1135-K1179) (human) (UniProt P56199)
Test: NMR titration; 1H-15N HSQC of 15N-labelled α1-TMC titrated with non-labelled β1-TMC in LDAO micelles; molar ratios α1/β1 1:0, 1:0.5, 1:1; 30°C; Varian 500 MHz; both purified

Question: For “integrin β1 transmembrane and cytoplasmic (TMC) domains, β1-TMC (V717-K798) (from UniProt P05556 717-798) (domain or fragment)”, which binding is on record?
Answer: binds weakly
